The source of these data is PubChem BioAssay AID330 (DTP/NCI, 2004).

The structures appear in SMILES notation. The list does not hold the whole screen: it is rich in T/C values a quarter to a half above the control, in often repeated tests (any T/C) and in doses without a T/C. Other doses and runs of a compound stand elsewhere. T/C: endpoint of the treated group in % of that of the vehicle group. Some entries give survivors of the animals treated and no T/C: the source files T/C as zero there, which appears to mark a toxic dose or a test without result, not a measured value. Some survivor counts are full or nearly so, which does not show that the dose was tolerated: the source hardly ever lists a survival T/C far under the control, and the zero likely stands for such cases as well. Counts of survivors are from the toxicity check (mostly the fifth day) where no day follows; animals may have died later. Schedules are NCI's codes, taken here to give the interval after Q, in days (D) or hours (H), and the number of doses after X. Some entries hold several experiments; their values stand side by side, smallest first. For survival time, the PubChem record calls one and a half times the control and up active, and a quarter to a half above the control has no call in these data; cut-offs in other NCI protocols can differ. Counts like (3×) say how often a value occurs here. Some T/C values are followed by the survivors on the day toxicity was checked, most often the fifth; without a count, all were alive then.

This test concerns P388 leukemia ip, CD2F1 mice, survival T/C. In words: NCI In Vivo Anticancer Drug Screen. Data for tumor model P388 Leukemia (intraperitoneal) in CD2F1 (CDF1) mice. To be noted: T/C endpoint: median survival time, higher T/C = longer survival.
The mark [1] stands for this setting: dose: 100.0 mg/kg/injection, schedule: Q01DX005 (ip), vehicle: Klucel (hydroxypropylcellulose) (HPC).
[2] abbreviates: dose: 200.0 mg/kg/injection, schedule: Q01DX005 (ip), vehicle: Klucel (hydroxypropylcellulose) (HPC).
Setting [3] is: dose: 50.0 mg/kg/injection, schedule: Q01DX009 (ip), vehicle: saline.
Setting [4] is: dose: 12.5 mg/kg/injection, schedule: Q01DX009 (ip), vehicle: saline.
Setting [5] is: dose: 25.0 mg/kg/injection, schedule: Q01DX009 (ip), vehicle: saline.
Where [6] appears, read: dose: 100.0 mg/kg/injection, schedule: Q01DX009 (ip), vehicle: saline.
The mark [7] stands for this setting: dose: 240.0 mg/kg/injection, schedule: Q01DX005 (ip), vehicle: saline with Tween-80.
[8] abbreviates: dose: 200.0 mg/kg/injection, schedule: Q01DX005 (ip), vehicle: saline.
Where [9] appears, read: dose: 200.0 mg/kg/injection, schedule: Q01DX009 (ip), vehicle: saline.
Setting [10] is: dose: 360.0 micrograms/kg/injection, schedule: Q01DX009 (ip), vehicle: saline.
Where [11] appears, read: dose: 600.0 micrograms/kg/injection, schedule: Q01DX009 (ip), vehicle: saline.

On to `CCN(CC)c1ccc(C(=N)c2ccc(N(CC)CC)cc2)cc1`, for which the survivor count reads like this: under setting [1], 0 of 5; under setting [2], 0 of 5.
Consider `Cc1ccc(S(=O)(=O)N(Cl)Cl)cc1`, for which, where the note is “dose: 50.0 mg/kg/injection, schedule: Q01DX009 (ip), vehicle: Klucel (hydroxypropylcellulose) (HPC)”, the survivor count is recorded as 3 of 6.
Regarding `C[N+]1(C)CCOC(O)(c2ccccc2)C1` (configuration not stated), the survivor count under setting [3] was 0 of 6.
With `C[n+]1ccn2cc(S(=O)(=O)[O-])ccc21`, the survivor count by setting is: under setting [4], 0 of 6; under setting [5], 0 of 6; under setting [3], 0 of 6; under setting [6], 0 of 6.
As for `CCCCN(C)/N=N/c1[nH]ncc1C(=O)OCC`, the survivor count (dose: 400.0 mg/kg/injection, schedule: Q01DX009 (ip), vehicle: other) is recorded as 6 of 6.
As to `O=C(CN1CCN(c2ccccc2)CC1)n1cnc2ccc([N+](=O)[O-])cc21`, under setting [7], the survivor count is given as 6 of 6.
In the case of `[CH3][Sn]1([CH3])[O]C2C(O)OC(CO)C(O)C2[O]1` (configuration not stated), the T/C (dose: 50.0 mg/kg/injection, schedule: Q01DX005 (ip), vehicle: Klucel (hydroxypropylcellulose) (HPC)) is 118 (2×), 120, 121 % of control. Besides, the survivor count is given as 2 of 6 under setting [1] and 0 of 6 under setting [2].
As for `CC(C)c1ccc2c[n+]3ccccc3cc2c1`, the survivor count (dose: 25.0 mg/kg/injection, schedule: Q01DX005 (ip), vehicle: Klucel (hydroxypropylcellulose) (HPC)) is 0 of 5 and 2 of 5.
With `CCN(CC)CCOC1CCCCC1`, the survivor count under setting [8] is 0 of 6.
As for `CN1C(=O)C2(C)SSC1(C)C(=O)N2C`, the survivor count reads like this: under setting [3], 6 of 6; under setting [6], 6 of 6; under setting [9], 5 of 6.
On to `NCC(=O)c1ccc2oc3ccccc3c2c1`, for which the survivor count (dose: 400.0 mg/kg/injection, schedule: Q01DX009 (ip), vehicle: Klucel (hydroxypropylcellulose) (HPC)) is 0 of 6.
Take `CCN1C(=O)CC([Se]c2ccccc2)C1=O` (configuration not stated): the survivor count (dose: 200.0 mg/kg/injection, schedule: Q04DX003 (ip), vehicle: Klucel (hydroxypropylcellulose) (HPC)) is 1 of 6 and 2 of 6; the survivor count (dose: 400.0 mg/kg/injection, schedule: Q04DX003 (ip), vehicle: Klucel (hydroxypropylcellulose) (HPC)) was 0 of 6.
Consider `O=[N+]([O-])c1cc(Cl)ccc1Cl`, for which the survivor count (dose: 400.0 mg/kg/injection, schedule: Q01DX009 (ip), vehicle: saline with Tween-80) is recorded as 3 of 6.
Take `CC(=O)OC1(C)CC(C)C(=O)C(C(O)CC2CC(=O)NC(=O)C2)C1` (configuration not stated): the T/C is 137 % of control (dose: 130.0 micrograms/kg/injection, schedule: Q01DX009 (ip), vehicle: saline); 149 % of control under setting [10]; 146 % of control under setting [11]; 125 % of control (dose: 1200.0 micrograms/kg/injection, schedule: Q04DX003 (ip), vehicle: saline); 131 % of control (dose: 2160.0 micrograms/kg/injection, schedule: Q04DX003 (ip), vehicle: saline); 128 % of control (dose: 6000.0 micrograms/kg/injection, schedule: Q04DX003 (ip), vehicle: saline). The survivor count under setting [10] is given as 8 of 8; the survivor count under setting [11] is listed as 7 of 7; the survivor count (dose: 1000.0 micrograms/kg/injection, schedule: Q01DX009 (ip), vehicle: saline) was 7 of 8 and 8 of 8.
For the molecule `CCc1ccc[n+](CCC2CNc3ccccc32)c1` (configuration not stated), the survivor count by setting is: (dose: 100.0 mg/kg/injection, schedule: Q01DX005 (ip), vehicle: saline) 0 of 5; under setting [8], 0 of 5.
On to `O=C(ON1C(=O)CCC1=O)C1CCC(CN2C(=O)C=CC2=O)CC1` (configuration not stated), for which the survivor count is, setting by setting: (dose: 200.0 mg/kg/injection, schedule: Q04DX002 (ip), vehicle: saline with Tween-80) 1 of 5; (dose: 400.0 mg/kg/injection, schedule: Q04DX002 (ip), vehicle: saline with Tween-80) 0 of 5.
For `CNC1=CC(=O)c2c(c3cc(O)ccc3n2C)C1=O`, the survivor count under setting [6] was 5 of 6.
Still for that read-out and setting: the same measure for `CC1OC1C(=O)Sc1ccccc1` (configuration not stated): 0 of 6.
For the molecule `[Cl][Sn]([c]1ccccc1)[c]1ccccc1`, the survivor count reads like this: (dose: 6.0 mg/kg/injection, schedule: Q03HX015 (ip), vehicle: saline) 5 of 10; (dose: 9.0 mg/kg/injection, schedule: Q03HX015 (ip), vehicle: saline) 0 of 10; (dose: 12.5 mg/kg/injection, schedule: Q01DX009 (ip), vehicle: saline with Tween-80) 1 of 6; (dose: 13.3 mg/kg/injection, schedule: Q03HX015 (ip), vehicle: saline) 0 of 10; (dose: 18.0 mg/kg/injection, schedule: Q01DX005 (ip), vehicle: saline) 2 of 10; (dose: 20.0 mg/kg/injection, schedule: Q03HX015 (ip), vehicle: saline) 0 of 10. For the same molecule, the survivor count (dose: 25.0 mg/kg/injection, schedule: Q01DX009 (ip), vehicle: saline with Tween-80) is on record as 0 of 6; the survivor count (dose: 27.0 mg/kg/injection, schedule: Q01DX005 (ip), vehicle: saline) is 0 of 10; the survivor count (dose: 30.0 mg/kg/injection, schedule: Q03HX015 (ip), vehicle: saline) is listed as 0 of 10; the survivor count (dose: 40.0 mg/kg/injection, schedule: Q01DX005 (ip), vehicle: saline) is reported as 0 of 10; the survivor count (dose: 45.0 mg/kg/injection, schedule: Q03HX015 (ip), vehicle: saline) is reported as 0 of 10; the survivor count (dose: 50.0 mg/kg/injection, schedule: Q01DX009 (ip), vehicle: saline with Tween-80) is 0 of 6. The survivor count is listed as 5 of 6 under setting [3]; 0 of 10 (dose: 60.0 mg/kg/injection, schedule: Q01DX005 (ip), vehicle: saline); 0 of 10 (dose: 90.0 mg/kg/injection, schedule: Q01DX005 (ip), vehicle: saline); 6 of 6 under setting [6]; 0 of 10 (dose: 135.0 mg/kg/injection, schedule: Q01DX005 (ip), vehicle: saline); 2 of 6 under setting [9]. The T/C is, setting by setting: (dose: 6.25 mg/kg/injection, schedule: Q01DX009 (ip), vehicle: saline with Tween-80) 128 % of control; (dose: 6.25 mg/kg/injection, schedule: Q01DX009 (ip), vehicle: saline) 132 and 135 % of control; (dose: 8.0 mg/kg/injection, schedule: Q01DX005 (ip), vehicle: saline) 147 % of control; under setting [4], 144 % of control; under setting [5], 144 % of control [4 of 6 alive]; (dose: 25.0 mg/kg/injection, schedule: Q04DX003 (ip), vehicle: saline) 132 % of control. Also, for the setting “dose: 50.0 mg/kg/injection, schedule: Q04DX003 (ip), vehicle: saline”, the T/C was 127 % of control [5 of 6 alive].
As to `C=CC(O)C(C)C(=O)O` (configuration not stated), under “dose: 50.0 mg/kg/injection, schedule: Q01DX005 (ip), vehicle: saline with Tween-80”, the survivor count is 4 of 5.
Regarding `CCOC(=O)C#Cc1cccc(C#CC(=O)OCC)c1`, the survivor count is recorded as 3 of 6 (dose: 200.0 mg/kg/injection, schedule: Q01DX001 (ip), vehicle: saline with Tween-80) and 1 of 6 (dose: 400.0 mg/kg/injection, schedule: Q01DX001 (ip), vehicle: saline with Tween-80).
On to `COC(=O)c1ccccc1NC(Cc1ccccc1)=NC(C)(C)C`, for which the survivor count (dose: 200.0 mg/kg/injection, schedule: Q01DX009 (ip), vehicle: saline with Tween-80) is on record as 6 of 6.
`COc1ccc(OC)c(N(CCN2C(=O)c3ccccc3C2=O)C(=O)C2CCC(=O)C2C)c1` (configuration not stated): under setting [7], the survivor count is given as 6 of 6.
